Measurements from patent US20210318312A1.
Results are given in words; binding and its absence hold for the method and conditions named. In cells and extracts the contact can be indirect. Some binding calls cover weakened binding; strength is not graded here. Where a sequence is shown, tags or fusion partners need not be part of it.

Sequences of proteins named here, by UniProt entry; tags and fusion partners are left off. Residues count along the entry.
UniProt P00367, residues 54-558: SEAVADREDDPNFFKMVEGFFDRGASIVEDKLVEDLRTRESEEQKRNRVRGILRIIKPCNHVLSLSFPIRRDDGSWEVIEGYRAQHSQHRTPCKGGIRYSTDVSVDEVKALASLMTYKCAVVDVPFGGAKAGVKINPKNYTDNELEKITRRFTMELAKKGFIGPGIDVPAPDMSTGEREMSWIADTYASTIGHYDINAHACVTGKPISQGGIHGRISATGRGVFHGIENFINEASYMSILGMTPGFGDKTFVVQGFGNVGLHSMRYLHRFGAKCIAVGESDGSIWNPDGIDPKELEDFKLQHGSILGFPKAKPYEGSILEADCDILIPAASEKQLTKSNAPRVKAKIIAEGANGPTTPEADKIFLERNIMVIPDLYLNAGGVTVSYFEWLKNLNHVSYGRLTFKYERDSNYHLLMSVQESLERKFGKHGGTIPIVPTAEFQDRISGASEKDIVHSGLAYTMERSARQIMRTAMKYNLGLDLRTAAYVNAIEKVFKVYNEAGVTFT
UniProt P14735: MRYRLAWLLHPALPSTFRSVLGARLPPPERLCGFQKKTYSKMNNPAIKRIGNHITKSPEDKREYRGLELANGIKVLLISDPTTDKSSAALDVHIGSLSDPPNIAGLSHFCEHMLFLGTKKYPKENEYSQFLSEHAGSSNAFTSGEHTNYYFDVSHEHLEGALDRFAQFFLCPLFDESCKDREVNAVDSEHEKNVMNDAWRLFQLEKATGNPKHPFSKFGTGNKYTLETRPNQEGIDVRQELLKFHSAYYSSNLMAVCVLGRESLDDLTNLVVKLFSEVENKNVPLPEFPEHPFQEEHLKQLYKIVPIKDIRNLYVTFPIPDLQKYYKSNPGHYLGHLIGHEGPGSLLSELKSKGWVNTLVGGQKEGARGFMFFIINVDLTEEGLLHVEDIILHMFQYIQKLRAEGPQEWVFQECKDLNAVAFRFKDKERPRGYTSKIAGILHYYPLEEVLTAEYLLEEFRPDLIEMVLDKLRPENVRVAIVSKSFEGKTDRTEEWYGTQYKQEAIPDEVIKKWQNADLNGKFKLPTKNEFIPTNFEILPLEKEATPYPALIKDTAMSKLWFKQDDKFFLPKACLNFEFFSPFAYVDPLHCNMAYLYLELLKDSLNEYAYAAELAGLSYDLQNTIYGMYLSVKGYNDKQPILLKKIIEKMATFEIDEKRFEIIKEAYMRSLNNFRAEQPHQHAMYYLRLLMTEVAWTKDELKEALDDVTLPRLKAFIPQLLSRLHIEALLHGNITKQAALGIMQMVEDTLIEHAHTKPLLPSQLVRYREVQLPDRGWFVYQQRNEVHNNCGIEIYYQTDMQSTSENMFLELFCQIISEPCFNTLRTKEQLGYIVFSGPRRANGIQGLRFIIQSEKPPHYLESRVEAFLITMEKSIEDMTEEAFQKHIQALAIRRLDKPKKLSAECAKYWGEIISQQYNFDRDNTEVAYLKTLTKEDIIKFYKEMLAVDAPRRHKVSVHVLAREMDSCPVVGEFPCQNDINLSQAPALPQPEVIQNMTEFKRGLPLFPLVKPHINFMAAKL

Legend:
Experiment in all cases: IP-MS of SIRT4-EGFP from MRC5 mitochondria, SAINT scoring
[1] = target: T1, MLYCD (malonyl-CoA decarboxylase), endogenous (human) (UniProt O95822)
T1 sequence (looked up): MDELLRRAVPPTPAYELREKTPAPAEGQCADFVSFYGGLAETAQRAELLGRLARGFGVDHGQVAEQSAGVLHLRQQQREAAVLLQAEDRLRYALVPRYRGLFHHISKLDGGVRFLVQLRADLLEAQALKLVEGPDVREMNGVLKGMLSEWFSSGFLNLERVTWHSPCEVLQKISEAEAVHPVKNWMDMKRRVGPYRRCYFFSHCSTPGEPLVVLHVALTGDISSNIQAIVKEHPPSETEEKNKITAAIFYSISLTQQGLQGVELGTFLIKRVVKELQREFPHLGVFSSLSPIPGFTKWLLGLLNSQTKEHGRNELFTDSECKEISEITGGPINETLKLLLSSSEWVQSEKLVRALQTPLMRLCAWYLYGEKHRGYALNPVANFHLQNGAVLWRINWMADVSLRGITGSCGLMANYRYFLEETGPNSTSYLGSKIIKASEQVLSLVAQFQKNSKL

[2] = target: glutamate dehydrogenase (GLUD1), endogenous (human) (UniProt P00367)
IDE, endogenous (human) = IDE, endogenous (human) (UniProt P14735)

Measured: binding

B1: SIRT4-EGFP (enzyme, not shown: large carriers)
chain: IGLFVPASPPLDPEKVKELQRFITLSKRLLVMTGAGISTESGIPDYRSEKVGLYARTDRRPIQHGDFVRSAPIRQRYWARNFVGWPQFSSHQPNPAHWALSTWEKLGKLYWLVTQNVDALHTKAGSRRLTELHGCMDRVLCLDCGEQTPRGVLQERFQVLNPTWSAEAHGLAPDGDVFLSEEQVRSFQVPTCVQCGGHLKPDVVFFGDTVNPDKVDFVHKRVKEADSLLVVGSSLQVYSGYRFILTAWEKKLPIAILNIGPTRSDDLACLKLNSRCGELLPLIDPC
binds: all assays above
